Sequences of proteins named here, by UniProt entry; tags and fusion partners are left off. Residues count along the entry.
UniProt Q01973, residues 30-937: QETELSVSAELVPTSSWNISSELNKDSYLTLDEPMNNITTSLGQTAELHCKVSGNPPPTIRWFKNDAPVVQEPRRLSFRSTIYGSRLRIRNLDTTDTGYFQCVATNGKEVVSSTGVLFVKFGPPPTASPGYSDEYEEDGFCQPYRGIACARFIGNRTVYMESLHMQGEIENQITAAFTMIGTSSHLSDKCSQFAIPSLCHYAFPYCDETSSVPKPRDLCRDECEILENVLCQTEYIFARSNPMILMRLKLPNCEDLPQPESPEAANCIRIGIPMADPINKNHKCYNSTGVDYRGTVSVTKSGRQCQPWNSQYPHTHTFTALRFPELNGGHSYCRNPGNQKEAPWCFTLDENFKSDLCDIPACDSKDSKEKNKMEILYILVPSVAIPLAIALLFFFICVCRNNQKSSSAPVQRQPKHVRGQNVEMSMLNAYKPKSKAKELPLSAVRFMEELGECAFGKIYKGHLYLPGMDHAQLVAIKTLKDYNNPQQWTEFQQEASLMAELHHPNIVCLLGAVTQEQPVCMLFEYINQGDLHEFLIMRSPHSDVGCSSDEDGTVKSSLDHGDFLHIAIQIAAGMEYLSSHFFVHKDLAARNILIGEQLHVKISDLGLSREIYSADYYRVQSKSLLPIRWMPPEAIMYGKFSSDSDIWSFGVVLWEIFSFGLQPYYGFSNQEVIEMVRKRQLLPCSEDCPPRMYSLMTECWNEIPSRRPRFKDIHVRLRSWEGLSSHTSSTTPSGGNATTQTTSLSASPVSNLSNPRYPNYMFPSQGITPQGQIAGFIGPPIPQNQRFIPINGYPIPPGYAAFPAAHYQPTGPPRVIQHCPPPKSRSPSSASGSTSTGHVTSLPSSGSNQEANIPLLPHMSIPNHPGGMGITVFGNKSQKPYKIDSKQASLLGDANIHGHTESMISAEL
UniProt Q01974, residues 34-943: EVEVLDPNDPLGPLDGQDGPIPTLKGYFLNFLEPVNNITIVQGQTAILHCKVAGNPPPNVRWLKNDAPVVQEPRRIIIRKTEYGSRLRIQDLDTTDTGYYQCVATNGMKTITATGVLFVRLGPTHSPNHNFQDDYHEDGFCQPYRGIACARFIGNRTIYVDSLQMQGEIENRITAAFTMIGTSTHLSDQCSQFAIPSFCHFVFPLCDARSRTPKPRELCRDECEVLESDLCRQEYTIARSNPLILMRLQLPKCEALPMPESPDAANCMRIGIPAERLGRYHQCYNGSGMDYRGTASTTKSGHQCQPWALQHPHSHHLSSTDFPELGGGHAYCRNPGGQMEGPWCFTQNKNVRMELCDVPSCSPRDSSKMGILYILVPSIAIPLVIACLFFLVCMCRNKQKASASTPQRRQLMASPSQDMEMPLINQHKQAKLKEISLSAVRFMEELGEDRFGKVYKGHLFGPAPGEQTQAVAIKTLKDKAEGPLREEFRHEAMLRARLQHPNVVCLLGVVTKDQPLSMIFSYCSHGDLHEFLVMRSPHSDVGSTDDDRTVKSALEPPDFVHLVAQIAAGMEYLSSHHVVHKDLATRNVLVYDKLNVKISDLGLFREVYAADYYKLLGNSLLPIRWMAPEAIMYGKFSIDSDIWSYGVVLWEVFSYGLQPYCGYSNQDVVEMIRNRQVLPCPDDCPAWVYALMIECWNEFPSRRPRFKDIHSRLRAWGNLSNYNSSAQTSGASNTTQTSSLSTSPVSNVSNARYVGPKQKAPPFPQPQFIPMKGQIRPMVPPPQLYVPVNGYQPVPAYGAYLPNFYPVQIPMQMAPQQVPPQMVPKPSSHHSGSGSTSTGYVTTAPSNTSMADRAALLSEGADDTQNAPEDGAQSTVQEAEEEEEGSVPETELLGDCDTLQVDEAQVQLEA
UniProt P29317, residues 24-976: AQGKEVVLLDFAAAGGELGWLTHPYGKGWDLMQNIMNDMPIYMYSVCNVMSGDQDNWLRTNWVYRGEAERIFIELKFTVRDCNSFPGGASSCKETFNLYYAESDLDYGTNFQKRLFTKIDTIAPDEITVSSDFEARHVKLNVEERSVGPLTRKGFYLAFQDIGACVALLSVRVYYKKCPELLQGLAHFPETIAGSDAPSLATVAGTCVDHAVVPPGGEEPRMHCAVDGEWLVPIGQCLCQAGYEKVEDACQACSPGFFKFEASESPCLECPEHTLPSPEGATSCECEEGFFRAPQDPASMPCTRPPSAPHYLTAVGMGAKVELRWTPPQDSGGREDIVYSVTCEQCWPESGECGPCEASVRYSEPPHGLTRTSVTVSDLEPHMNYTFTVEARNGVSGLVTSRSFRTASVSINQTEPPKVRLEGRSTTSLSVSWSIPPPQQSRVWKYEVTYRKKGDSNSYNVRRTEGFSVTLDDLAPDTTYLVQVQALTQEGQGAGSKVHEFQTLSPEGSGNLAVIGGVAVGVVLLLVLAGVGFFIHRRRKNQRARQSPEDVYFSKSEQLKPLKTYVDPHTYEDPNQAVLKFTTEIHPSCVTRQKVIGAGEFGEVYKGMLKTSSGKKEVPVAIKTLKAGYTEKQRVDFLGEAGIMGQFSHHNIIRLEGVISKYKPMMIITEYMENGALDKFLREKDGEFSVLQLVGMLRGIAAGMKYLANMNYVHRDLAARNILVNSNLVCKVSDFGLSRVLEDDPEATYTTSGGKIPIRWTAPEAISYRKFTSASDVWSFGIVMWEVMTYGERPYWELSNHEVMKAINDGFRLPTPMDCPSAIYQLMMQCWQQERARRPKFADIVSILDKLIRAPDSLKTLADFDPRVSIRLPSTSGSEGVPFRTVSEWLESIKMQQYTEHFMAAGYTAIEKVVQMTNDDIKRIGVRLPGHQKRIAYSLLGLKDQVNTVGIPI
UniProt O14641: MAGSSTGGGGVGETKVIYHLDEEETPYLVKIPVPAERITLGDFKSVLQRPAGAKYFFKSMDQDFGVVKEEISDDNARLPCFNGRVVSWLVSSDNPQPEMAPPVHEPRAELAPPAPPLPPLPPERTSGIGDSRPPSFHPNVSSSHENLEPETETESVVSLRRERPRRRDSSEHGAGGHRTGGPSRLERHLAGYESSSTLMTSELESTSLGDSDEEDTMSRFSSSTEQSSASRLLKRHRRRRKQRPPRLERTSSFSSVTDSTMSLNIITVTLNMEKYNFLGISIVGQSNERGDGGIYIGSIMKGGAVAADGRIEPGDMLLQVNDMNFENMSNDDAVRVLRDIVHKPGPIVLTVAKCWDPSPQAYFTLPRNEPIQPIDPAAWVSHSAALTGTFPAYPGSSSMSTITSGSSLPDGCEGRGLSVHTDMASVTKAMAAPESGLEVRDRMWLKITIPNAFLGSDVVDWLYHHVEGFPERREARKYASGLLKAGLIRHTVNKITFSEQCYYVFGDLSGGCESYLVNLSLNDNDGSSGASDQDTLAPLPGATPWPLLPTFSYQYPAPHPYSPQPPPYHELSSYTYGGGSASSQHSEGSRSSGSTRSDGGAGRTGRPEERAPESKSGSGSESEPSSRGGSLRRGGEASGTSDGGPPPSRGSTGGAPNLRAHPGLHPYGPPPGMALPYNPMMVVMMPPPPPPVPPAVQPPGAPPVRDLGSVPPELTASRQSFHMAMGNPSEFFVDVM

According to publication doi:10.1101/2025.01.15.633117:

Legend:
Test in all cases: proximity labelling
[1] = molecular target: T1, MYC-BirA*-PRICKLE1 (human) (UniProt Q96MT3)
T1 sequence: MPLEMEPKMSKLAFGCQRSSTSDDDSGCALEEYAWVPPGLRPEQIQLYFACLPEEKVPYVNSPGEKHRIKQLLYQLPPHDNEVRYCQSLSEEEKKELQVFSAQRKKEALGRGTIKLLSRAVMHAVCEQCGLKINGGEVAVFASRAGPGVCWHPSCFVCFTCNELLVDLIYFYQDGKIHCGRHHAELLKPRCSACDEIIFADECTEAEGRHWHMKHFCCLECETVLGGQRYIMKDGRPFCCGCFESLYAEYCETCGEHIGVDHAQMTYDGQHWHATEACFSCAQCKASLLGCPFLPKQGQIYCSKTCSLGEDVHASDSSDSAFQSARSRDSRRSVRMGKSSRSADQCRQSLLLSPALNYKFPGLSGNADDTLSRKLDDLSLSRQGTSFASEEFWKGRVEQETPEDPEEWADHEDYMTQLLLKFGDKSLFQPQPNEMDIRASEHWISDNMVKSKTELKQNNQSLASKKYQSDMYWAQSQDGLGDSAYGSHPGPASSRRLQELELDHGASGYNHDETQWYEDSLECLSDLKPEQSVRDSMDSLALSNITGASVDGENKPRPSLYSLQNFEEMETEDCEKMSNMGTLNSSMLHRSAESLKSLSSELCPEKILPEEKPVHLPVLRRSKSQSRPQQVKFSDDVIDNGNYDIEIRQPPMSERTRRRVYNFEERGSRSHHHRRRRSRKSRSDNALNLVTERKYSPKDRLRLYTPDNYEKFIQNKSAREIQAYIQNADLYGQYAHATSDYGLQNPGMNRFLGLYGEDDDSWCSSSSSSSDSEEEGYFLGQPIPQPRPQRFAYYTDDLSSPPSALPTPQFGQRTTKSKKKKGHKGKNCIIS

[2] = molecular target: ROR1-BirA*-HA (human) (UniProt Q01973)
[3] = molecular target: ROR2-BirA*-HA (human) (UniProt Q01974)
[4] = molecular target: T2, VANGL2-BirA*-HA (human) (UniProt Q9ULK5)
T2 sequence: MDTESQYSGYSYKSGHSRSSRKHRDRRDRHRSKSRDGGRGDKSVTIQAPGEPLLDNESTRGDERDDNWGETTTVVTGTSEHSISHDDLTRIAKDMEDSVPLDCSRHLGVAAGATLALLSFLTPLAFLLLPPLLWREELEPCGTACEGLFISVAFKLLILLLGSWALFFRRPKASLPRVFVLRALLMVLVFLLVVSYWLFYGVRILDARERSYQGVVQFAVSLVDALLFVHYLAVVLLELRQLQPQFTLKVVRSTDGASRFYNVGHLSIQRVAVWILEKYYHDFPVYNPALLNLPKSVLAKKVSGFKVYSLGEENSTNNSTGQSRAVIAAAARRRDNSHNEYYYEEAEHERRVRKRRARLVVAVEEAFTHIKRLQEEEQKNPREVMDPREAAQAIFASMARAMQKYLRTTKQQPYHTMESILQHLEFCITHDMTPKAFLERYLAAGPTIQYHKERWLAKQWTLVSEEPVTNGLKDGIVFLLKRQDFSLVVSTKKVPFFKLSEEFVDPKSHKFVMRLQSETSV

[5] = molecular target: T3, MYC-BirA*-DVL3 (human) (UniProt Q92997)
T3 sequence: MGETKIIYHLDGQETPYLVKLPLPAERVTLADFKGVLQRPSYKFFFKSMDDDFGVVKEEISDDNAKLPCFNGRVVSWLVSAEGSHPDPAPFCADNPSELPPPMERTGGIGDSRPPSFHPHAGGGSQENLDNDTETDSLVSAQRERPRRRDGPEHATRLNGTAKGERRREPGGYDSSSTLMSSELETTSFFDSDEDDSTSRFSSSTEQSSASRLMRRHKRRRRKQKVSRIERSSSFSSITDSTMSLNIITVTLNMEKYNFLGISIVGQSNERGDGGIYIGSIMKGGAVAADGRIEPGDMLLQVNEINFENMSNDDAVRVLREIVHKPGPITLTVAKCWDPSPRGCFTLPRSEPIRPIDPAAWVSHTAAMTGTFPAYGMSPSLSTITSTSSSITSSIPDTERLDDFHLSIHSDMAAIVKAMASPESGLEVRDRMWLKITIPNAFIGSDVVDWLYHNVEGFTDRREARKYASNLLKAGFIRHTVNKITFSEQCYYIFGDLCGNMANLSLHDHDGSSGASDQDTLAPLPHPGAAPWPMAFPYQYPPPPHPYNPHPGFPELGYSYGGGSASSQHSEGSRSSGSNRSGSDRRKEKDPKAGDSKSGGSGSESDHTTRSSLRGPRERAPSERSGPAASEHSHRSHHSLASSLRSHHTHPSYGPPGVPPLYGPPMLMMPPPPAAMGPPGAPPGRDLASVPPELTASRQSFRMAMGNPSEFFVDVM

[6] = molecular target: EPHA2-V5-miniTurboID (human) (UniProt P29317)
[7] = molecular target: T4, RAI14-V5-miniTurboID (human) (UniProt Q9P0K7)
T4 sequence: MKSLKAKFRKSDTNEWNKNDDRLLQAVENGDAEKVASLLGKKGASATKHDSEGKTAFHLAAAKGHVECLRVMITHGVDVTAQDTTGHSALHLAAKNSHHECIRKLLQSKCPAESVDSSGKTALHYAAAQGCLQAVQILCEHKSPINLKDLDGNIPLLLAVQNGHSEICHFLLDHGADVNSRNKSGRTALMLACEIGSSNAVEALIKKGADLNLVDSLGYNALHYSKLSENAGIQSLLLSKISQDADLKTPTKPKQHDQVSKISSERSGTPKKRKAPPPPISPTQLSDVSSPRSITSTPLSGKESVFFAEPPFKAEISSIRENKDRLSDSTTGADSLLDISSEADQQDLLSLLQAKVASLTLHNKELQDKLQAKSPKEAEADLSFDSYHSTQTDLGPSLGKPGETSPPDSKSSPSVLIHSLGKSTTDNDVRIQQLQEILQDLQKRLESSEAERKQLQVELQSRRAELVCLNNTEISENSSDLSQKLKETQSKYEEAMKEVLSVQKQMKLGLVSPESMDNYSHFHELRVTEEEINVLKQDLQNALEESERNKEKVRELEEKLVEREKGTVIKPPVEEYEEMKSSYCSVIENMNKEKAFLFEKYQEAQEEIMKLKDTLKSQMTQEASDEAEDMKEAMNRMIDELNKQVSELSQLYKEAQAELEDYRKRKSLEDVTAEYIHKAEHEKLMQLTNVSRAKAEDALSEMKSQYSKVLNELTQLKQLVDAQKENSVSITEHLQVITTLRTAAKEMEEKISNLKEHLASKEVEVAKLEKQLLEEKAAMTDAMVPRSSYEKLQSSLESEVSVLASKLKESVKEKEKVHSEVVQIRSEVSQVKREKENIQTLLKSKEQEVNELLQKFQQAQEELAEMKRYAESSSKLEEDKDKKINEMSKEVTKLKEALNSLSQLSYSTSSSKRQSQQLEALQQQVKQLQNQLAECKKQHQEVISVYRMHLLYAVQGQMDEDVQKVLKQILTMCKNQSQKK

[8] = molecular target: T5, PHACTR4-V5-miniTurboID (human) (UniProt Q8IZ21)
T5 sequence: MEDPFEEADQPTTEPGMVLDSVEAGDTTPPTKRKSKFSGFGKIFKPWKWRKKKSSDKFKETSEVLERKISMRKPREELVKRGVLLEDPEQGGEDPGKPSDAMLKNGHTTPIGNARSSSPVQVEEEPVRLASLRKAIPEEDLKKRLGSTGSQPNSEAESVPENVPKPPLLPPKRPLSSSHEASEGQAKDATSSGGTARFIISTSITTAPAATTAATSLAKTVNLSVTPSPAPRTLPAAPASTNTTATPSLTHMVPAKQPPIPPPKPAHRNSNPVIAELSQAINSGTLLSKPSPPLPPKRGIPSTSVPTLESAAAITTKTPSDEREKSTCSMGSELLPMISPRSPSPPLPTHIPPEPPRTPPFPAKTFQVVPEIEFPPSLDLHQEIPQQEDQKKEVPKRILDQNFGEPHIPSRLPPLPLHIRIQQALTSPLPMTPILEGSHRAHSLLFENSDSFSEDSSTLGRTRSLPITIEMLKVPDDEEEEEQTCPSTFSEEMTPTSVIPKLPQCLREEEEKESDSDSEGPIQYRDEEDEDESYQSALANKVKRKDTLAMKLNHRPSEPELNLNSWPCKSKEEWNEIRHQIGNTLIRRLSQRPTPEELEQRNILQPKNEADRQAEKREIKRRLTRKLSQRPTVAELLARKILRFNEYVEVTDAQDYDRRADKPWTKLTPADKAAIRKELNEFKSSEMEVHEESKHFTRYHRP

Molecule: DVL2 (from UniProt O14641 1-736)
- binding [1]: binds
- binding [2]: binds
- binding [3]: binds
- binding [4]: binds
- binding [5]: binds

B1: PRICKLE1 (endogenous) (protein, UniProt Q96MT3 1-831)
chain: MPLEMEPKMSKLAFGCQRSSTSDDDSGCALEEYAWVPPGLRPEQIQLYFACLPEEKVPYVNSPGEKHRIKQLLYQLPPHDNEVRYCQSLSEEEKKELQVFSAQRKKEALGRGTIKLLSRAVMHAVCEQCGLKINGGEVAVFASRAGPGVCWHPSCFVCFTCNELLVDLIYFYQDGKIHCGRHHAELLKPRCSACDEIIFADECTEAEGRHWHMKHFCCLECETVLGGQRYIMKDGRPFCCGCFESLYAEYCETCGEHIGVDHAQMTYDGQHWHATEACFSCAQCKASLLGCPFLPKQGQIYCSKTCSLGEDVHASDSSDSAFQSARSRDSRRSVRMGKSSRSADQCRQSLLLSPALNYKFPGLSGNADDTLSRKLDDLSLSRQGTSFASEEFWKGRVEQETPEDPEEWADHEDYMTQLLLKFGDKSLFQPQPNEMDIRASEHWISDNMVKSKTELKQNNQSLASKKYQSDMYWAQSQDGLGDSAYGSHPGPASSRRLQELELDHGASGYNHDETQWYEDSLECLSDLKPEQSVRDSMDSLALSNITGASVDGENKPRPSLYSLQNFEEMETEDCEKMSNMGTLNSSMLHRSAESLKSLSSELCPEKILPEEKPVHLPVLRRSKSQSRPQQVKFSDDVIDNGNYDIEIRQPPMSERTRRRVYNFEERGSRSHHHRRRRSRKSRSDNALNLVTERKYSPKDRLRLYTPDNYEKFIQNKSAREIQAYIQNADLYGQYAHATSDYGLQNPGMNRFLGLYGEDDDSWCSSSSSSSDSEEEGYFLGQPIPQPRPQRFAYYTDDLSSPPSALPTPQFGQRTTKSKKKKGHKGKNCIIS
- binding [6]: binds
- binding [7]: binds

B2: VANGL1 (protein, UniProt Q8TAA9 1-524)
chain: MDTESTYSGYSYYSSHSKKSHRQGERTRERHKSPRNKDGRGSEKSVTIQPPTGEPLLGNDSTRTEEVQDDNWGETTTAITGTSEHSISQEDIARISKDMEDSVGLDCKRYLGLTVASFLGLLVFLTPIAFILLPPILWRDELEPCGTICEGLFISMAFKLLILLIGTWALFFRKRRADMPRVFVFRALLLVLIFLFVVSYWLFYGVRILDSRDRNYQGIVQYAVSLVDALLFIHYLAIVLLELRQLQPMFTLQVVRSTDGESRFYSLGHLSIQRAALVVLENYYKDFTIYNPNLLTASKFRAAKHMAGLKVYNVDGPSNNATGQSRAMIAAAARRRDSSHNELYYEEAEHERRVKKRKARLVVAVEEAFIHIQRLQAEEQQKAPGEVMDPREAAQAIFPSMARALQKYLRITRQQNYHSMESILQHLAFCITNGMTPKAFLERYLSAGPTLQYDKDRWLSTQWRLVSDEAVTNGLRDGIVFVLKCLDFSLVVNVKKIPFIILSEEFIDPKSHKFVLRLQSETSV
- binding [8]: binds

Results are given in words; binding and its absence hold for the method and conditions named. Binding seen in cells or lysates may run through a third protein. A yes stands for co-enrichment or nearness to the bait. Other partners may have been found. For some assays here: Where a sequence is shown, tags or fusion partners need not be part of it.
